Reference: the supplement of paper PMC10849652
The other results are listed elsewhere or left out.

Chains of the proteins cited; added tags and fusions are not shown. Lines headed by an entry give the natural chain unless they say otherwise; changes in a name come on top.
UniProt Q96HY6: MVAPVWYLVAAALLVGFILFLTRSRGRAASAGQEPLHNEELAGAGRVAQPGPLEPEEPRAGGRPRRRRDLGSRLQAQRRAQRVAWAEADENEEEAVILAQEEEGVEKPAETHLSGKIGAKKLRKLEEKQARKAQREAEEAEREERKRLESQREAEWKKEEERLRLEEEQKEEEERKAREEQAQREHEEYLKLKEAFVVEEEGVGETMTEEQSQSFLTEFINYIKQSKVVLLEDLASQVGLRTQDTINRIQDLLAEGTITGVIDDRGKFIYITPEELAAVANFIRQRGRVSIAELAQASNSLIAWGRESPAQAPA
UniProt P00374: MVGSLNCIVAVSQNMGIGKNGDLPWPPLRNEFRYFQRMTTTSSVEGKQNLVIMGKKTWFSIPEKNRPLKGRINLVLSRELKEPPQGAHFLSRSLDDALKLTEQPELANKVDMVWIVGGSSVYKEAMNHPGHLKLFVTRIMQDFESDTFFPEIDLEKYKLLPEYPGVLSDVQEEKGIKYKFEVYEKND
UniProt Q92499: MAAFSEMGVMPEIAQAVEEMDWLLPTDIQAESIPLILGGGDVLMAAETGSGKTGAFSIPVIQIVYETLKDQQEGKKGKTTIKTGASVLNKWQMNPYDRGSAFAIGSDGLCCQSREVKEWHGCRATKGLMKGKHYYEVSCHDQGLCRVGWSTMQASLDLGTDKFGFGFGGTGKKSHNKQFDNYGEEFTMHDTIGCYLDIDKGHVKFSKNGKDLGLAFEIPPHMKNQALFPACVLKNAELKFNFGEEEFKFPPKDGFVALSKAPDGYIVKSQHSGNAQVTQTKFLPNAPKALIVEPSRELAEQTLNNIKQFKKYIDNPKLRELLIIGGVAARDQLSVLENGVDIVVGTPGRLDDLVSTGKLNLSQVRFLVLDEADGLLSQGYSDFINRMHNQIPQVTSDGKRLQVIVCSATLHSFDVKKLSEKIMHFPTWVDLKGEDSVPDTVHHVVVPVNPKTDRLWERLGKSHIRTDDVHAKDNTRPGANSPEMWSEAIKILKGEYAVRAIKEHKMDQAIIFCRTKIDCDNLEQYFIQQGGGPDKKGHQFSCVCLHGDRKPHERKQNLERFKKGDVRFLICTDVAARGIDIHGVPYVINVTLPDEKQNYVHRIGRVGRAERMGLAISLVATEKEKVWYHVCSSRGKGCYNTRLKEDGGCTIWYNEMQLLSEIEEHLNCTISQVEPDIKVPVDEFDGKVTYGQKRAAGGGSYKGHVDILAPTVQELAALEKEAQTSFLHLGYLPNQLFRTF
UniProt P30046: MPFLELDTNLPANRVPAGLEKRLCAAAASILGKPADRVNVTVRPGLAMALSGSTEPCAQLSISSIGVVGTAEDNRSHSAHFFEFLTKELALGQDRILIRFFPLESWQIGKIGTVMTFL
UniProt O60884: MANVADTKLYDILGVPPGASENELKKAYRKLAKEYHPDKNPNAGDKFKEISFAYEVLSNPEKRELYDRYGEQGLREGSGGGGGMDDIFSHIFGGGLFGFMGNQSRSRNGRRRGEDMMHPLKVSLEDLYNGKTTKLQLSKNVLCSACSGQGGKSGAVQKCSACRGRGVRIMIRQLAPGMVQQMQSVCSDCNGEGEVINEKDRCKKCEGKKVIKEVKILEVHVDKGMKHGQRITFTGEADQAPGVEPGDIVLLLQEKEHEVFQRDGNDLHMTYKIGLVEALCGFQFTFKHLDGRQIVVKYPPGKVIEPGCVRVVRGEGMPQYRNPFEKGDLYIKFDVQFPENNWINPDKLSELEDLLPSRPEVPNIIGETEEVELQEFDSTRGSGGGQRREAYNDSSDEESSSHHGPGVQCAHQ
UniProt Q92841: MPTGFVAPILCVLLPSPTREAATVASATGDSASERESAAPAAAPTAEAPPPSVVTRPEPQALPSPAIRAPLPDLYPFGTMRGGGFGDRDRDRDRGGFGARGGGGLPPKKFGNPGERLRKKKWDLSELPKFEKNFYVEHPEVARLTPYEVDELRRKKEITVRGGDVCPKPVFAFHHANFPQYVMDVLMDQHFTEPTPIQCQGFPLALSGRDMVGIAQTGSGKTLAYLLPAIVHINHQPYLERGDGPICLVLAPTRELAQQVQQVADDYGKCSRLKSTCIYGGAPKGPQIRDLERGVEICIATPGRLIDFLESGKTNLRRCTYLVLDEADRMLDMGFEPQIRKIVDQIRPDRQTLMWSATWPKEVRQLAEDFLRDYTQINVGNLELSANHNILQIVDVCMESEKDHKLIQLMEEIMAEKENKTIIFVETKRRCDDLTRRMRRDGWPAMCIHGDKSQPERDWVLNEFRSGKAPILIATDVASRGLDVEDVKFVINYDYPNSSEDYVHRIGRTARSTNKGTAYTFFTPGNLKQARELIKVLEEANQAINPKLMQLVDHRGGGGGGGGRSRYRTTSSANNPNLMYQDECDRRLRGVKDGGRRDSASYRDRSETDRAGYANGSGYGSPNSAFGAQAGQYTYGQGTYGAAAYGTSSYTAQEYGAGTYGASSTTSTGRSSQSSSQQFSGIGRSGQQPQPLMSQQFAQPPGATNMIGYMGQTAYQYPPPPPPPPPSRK
UniProt Q6UWP2: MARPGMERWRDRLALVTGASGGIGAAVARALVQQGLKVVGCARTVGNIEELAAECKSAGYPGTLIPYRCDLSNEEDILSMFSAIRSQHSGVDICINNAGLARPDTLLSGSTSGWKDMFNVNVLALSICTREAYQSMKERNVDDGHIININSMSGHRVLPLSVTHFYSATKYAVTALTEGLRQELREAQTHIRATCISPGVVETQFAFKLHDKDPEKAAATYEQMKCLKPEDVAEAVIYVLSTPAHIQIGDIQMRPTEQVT
UniProt Q5TDH0: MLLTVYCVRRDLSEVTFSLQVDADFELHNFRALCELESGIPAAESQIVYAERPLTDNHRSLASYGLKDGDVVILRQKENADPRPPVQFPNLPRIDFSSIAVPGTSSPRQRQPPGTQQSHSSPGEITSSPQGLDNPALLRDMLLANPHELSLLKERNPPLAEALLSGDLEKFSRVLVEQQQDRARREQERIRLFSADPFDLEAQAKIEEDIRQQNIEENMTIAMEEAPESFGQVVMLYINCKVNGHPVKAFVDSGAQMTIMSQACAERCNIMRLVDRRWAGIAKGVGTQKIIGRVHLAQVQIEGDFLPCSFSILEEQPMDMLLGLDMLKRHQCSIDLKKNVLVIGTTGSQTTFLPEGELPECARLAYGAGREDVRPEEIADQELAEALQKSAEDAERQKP
UniProt Q7Z4W1: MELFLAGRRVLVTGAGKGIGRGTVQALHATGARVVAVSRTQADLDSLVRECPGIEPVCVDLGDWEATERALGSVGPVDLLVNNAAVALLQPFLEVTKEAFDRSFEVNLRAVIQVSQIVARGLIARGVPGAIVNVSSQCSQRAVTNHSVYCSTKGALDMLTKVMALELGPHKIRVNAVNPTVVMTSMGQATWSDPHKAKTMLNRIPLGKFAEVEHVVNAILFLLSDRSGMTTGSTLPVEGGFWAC
UniProt O43143: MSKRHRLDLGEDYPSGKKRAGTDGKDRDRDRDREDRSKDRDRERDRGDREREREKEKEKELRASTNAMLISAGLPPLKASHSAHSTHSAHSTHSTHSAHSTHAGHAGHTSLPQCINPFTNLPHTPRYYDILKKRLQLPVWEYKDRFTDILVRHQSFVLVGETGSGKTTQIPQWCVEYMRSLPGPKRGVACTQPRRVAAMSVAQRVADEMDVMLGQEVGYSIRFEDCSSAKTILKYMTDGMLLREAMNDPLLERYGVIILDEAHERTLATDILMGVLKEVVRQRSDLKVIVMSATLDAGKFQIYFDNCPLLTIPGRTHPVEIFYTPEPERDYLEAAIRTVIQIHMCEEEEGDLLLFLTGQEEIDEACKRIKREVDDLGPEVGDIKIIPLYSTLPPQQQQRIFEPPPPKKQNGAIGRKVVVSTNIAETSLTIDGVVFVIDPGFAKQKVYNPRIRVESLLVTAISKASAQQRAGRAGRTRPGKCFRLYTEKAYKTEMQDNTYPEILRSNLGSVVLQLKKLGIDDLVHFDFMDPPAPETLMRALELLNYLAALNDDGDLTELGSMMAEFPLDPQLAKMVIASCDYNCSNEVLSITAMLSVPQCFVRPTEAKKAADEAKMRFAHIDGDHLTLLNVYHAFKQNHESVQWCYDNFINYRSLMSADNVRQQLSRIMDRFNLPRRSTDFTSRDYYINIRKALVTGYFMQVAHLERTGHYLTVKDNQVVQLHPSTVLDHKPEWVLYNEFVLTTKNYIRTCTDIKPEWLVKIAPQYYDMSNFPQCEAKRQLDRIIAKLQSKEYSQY
UniProt P0CG22: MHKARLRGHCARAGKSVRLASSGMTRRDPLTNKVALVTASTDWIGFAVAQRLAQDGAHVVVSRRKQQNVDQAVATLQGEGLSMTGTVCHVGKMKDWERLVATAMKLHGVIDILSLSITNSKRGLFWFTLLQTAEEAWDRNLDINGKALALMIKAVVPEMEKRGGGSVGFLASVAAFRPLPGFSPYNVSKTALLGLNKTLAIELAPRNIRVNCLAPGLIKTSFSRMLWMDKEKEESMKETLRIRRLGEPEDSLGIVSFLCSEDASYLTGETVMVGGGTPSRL
UniProt Q08495: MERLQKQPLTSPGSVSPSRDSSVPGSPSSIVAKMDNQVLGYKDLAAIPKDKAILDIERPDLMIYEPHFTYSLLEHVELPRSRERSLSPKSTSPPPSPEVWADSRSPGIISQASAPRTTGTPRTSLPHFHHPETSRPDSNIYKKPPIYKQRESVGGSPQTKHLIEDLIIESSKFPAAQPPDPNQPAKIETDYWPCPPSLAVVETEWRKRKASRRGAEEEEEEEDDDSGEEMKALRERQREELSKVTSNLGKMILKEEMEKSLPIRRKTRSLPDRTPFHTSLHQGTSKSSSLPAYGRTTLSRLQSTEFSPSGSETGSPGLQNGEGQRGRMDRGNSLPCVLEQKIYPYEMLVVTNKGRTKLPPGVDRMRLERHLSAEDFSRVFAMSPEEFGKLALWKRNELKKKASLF
UniProt Q9GZR7: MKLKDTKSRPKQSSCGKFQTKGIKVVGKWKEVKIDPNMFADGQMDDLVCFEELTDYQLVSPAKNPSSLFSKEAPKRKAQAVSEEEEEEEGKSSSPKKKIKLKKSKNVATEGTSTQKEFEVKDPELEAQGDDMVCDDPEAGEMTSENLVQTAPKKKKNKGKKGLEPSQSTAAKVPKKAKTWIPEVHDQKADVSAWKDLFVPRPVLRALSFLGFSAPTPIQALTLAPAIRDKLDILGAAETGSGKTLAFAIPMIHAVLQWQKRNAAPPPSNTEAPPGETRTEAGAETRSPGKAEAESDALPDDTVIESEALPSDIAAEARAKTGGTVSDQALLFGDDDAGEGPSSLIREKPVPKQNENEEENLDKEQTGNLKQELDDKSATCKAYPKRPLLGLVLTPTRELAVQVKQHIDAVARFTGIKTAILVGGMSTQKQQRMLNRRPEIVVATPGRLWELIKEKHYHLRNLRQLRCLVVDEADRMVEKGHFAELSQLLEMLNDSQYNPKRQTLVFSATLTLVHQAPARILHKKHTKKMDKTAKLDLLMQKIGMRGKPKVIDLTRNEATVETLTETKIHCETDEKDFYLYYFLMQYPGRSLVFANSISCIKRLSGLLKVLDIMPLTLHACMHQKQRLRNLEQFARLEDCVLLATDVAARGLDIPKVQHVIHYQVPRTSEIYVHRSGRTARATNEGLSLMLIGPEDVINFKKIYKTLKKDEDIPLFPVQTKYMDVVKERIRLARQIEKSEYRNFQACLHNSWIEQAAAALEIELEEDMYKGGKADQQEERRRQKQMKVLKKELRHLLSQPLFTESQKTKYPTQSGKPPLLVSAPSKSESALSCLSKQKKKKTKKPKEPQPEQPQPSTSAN
UniProt Q13268: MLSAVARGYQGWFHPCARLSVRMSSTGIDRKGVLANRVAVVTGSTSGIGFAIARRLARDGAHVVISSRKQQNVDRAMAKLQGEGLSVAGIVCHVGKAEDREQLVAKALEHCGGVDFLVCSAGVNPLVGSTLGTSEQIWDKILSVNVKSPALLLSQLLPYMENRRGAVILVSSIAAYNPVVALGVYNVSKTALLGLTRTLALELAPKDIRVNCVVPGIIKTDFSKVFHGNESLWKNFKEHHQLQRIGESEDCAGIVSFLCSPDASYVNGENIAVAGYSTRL
UniProt Q9UMR2: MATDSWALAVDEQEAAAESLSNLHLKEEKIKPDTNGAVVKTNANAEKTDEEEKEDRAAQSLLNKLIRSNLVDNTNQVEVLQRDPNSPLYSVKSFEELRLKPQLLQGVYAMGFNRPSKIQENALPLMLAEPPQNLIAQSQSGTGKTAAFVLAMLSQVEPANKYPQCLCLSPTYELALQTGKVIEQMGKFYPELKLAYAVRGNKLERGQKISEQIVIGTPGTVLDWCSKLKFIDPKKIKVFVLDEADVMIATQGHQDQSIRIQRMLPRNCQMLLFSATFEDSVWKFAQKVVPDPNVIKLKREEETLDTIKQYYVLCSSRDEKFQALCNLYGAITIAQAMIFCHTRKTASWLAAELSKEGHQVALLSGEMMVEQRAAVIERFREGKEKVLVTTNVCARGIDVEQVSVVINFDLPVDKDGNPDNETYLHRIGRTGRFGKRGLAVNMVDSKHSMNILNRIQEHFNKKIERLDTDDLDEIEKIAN

Tests used:
Experiment in all cases: log2 fold change, soluble protein after heating vs DMSO (PISA); higher = thermal stabilisation; K562 cells, 10 uM, 30 min; active = over 0.2 and 3.5 SD of the protein, either way, in both replicates (recomputed)
[1] = compound: CS(=O)(=O)c1ccc(-c2cnc(N)c(C(=O)Nc3ccccc3)n2)cc1
Method in brief: (§1)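 K562 cells at 2×10^6 cells/mL were exposed to 10 μM compound for 30 min, then aliquots were heated for 3 min across 48°C-58°C, pooled, and extracted in PBS containing 0.5% NP-40 at 4°C. The supernatant after 21,000xg for 90 min was taken as soluble protein and measured by TMTpro 16plex LC-MS/MS with channel sums equalised. Thermal stability is reported relative to control samples, with values from duplicates. Fold changes are given on a log2 scale.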

[2] = compound: C[C@@H](Oc1cc(-c2cnn(C3CCNCC3)c2)cnc1N)c1c(Cl)ccc(F)c1Cl [crizotinib]
Method in brief: as §1

[3] = compound: C[C@@H]1COCCN1C2=NC(=NC(=C2)C3(CC3)S(=O)(=O)C)C4=C5C=CNC5=CC=C4
Method in brief: as §1

[4] = compound: C[C@H](C1=CC=C(C=C1)C(=O)NC2=C3C=CNC3=NC=C2)N
Method in brief: as §1

[5] = compound: C[C@H](Nc1ncnc2nc[nH]c12)c1cc2cccc(Cl)c2c(=O)n1-c1ccccc1 [duvelisib]
Method in brief: as §1

[6] = compound: Cc1cc(Nc2cc(CN3CCOCC3)c3nc(C)c(Cc4ccc(Cl)cc4F)n3n2)n[nH]1 [gandotinib]
Method in brief: as §1

[7] = compound: Cc1cc(Nc2cc(N3CCN(C)CC3)nc(Sc3ccc(NC(=O)C4CC4)cc3)n2)n[nH]1 [tozasertib]
Method in brief: as §1

[8] = compound: Cc1cc(SCc2sc(-c3ccc(C(F)(F)F)cc3)nc2C)ccc1OCC(=O)O
Method in brief: as §1

[9] = compound: Cc1ccc(-n2nc(C(C)(C)C)cc2NC(=O)Nc2ccc(OCCN3CCOCC3)c3ccccc23)cc1 [doramapimod]
Method in brief: as §1

[10] = compound: Cc1ccc(C(=O)N(CCCN)[C@@H](c2nc3cc(Cl)ccc3c(=O)n2Cc2ccccc2)C(C)C)cc1 [ispinesib]
Method in brief: as §1

[11] = compound: Cc1ccc(NC(=O)c2ccc(CN3CC[C@H](N(C)C)C3)c(C(F)(F)F)c2)cc1Nc1nccc(-c2cncnc2)n1 [bafetinib]
Method in brief: as §1

[12] = compound: Cc1cccc(CC(=O)N2CCc3c2ccc(-c2cn(C)c4ncnc(N)c24)c3F)n1
Method in brief: as §1

[13] = compound: Cc1cn(-c2cc(NC(=O)c3ccc(C)c(Nc4nccc(-c5cccnc5)n4)c3)cc(C(F)(F)F)c2)cn1 [nilotinib]
Method in brief: as §1

[14] = compound: Cc1nc(Nc2n[nH]c3c2CN(C(=O)N[C@H](CN(C)C)c2ccccc2)C3(C)C)c2sccc2n1
Method in brief: as §1

[15] = compound: Cc1nc(Nc2ncc(C(=O)Nc3c(C)cccc3Cl)s2)cc(N2CCN(CCO)CC2)n1 [dasatinib]
Method in brief: as §1

[16] = compound: Cc1ncc(-c2ccnc(Nc3ccc(S(C)(=O)=O)cc3)n2)n1C(C)C
Method in brief: as §1

[17] = compound: Cn1cc(-c2ccc3c(c2)CCN3C(=O)Cc2cccc(C(F)(F)F)c2)c2c(N)ncnc21
Method in brief: as §1

[18] = compound: Cn1cc(-c2ccc3nnc(C(F)(F)c4ccc5ncccc5c4)n3n2)cn1
Method in brief: as §1

[19] = compound: Cn1cncc1[C@@](N)(c1ccc(Cl)cc1)c1ccc2c(c1)c(-c1cccc(Cl)c1)cc(=O)n2C [tipifarnib]
Method in brief: as §1

[20] = compound: FC(F)(F)c1ccc(/C=C/c2nc(COc3ccc(CCCCn4ccnn4)cc3)co2)cc1 [mubritinib]
Method in brief: as §1

Measured: log2 fold change

DDRGK1 (UniProt Q96HY6)
inactive: [1] 0.02 | [2] 0.034 | [3] -0.03 | [4] 0.023 | [5] -0.083 | [6] -0.084 | [7] 0.027 | [8] 0.027 | [9] 0.018 | [10] 0.044 | [11] 0.034 | [12] -0.089 | [13] -0.014 | [14] 0.008 | [15] 0.045 | [16] 0.018 | [17] -0.009 | [18] -0.01 | [19] 0.098 | [20] 0.042

DHFR (UniProt P00374)
active: [2] 0.956 | [5] 0.604
inactive: [1] -0.009 | [3] -0.015 | [4] 0.239 | [6] -0.194 | [8] 0.048 | [9] 0.179 | [10] -0.207 | [11] 0.191 | [12] 0.026 | [13] 0.185 | [14] -0.022 | [15] -0.187 | [16] 0.076 | [17] 0 | [18] 0.182 | [19] 0.177 | [20] -0.225

DDX1 (UniProt Q92499)
inactive: [1] 0.008 | [2] -0.079 | [3] -0.138 | [4] 0.223 | [5] -0.042 | [6] 0.071 | [7] 0.035 | [8] 0.067 | [9] 0.168 | [10] -0.031 | [11] 0.195 | [12] 0.034 | [13] 0.031 | [14] 0.01 | [15] -0.027 | [16] 0.018 | [17] -0.066 | [18] -0.098 | [19] -0.089 | [20] -0.038

DDT (UniProt P30046)
inactive: [1] 0.007 | [2] 0.094 | [3] 0.155 | [4] -0.069 | [5] 0.046 | [6] 0.018 | [7] 0.019 | [8] -0.059 | [9] -0.004 | [10] 0.036 | [11] 0 | [12] -0.04 | [13] 0.01 | [14] 0.01 | [15] 0.089 | [16] -0.013 | [17] 0.135 | [18] 0.086 | [19] -0.103 | [20] 0.039

DGAT1 (UniProt O75907)
inactive: [1] -0.035 | [2] 0.033 | [3] -0.038 | [4] -0.073 | [5] -0.007 | [6] 0.015 | [7] 0.08 | [8] -0.043 | [9] 0.006 | [10] 0.046 | [11] -0.004 | [12] -0.004 | [13] -0.038 | [14] 0.041 | [15] -0.042 | [16] -0.066 | [17] 0.051 | [18] -0.065 | [19] 0 | [20] 0.003

Quoted from the listing (4 entries):
DHFR (UniProt P00374)
active: [2] 0.956 | [5] 0.604
inactive: [1] -0.009 | [3] -0.015 | [4] 0.239 | [6] -0.194 | [8] 0.048 | [9] 0.179 | [10] -0.207 | [11] 0.191 | [12] 0.026 | [13] 0.185 | [14] -0.022 | [15] -0.187 | [16] 0.076 | [17] 0 | [18] 0.182 | [19] 0.177 | [20] -0.225

DDX1 (UniProt Q92499)
inactive: [1] 0.008 | [2] -0.079 | [3] -0.138 | [4] 0.223 | [5] -0.042 | [6] 0.071 | [7] 0.035 | [8] 0.067 | [9] 0.168 | [10] -0.031 | [11] 0.195 | [12] 0.034 | [13] 0.031 | [14] 0.01 | [15] -0.027 | [16] 0.018 | [17] -0.066 | [18] -0.098 | [19] -0.089 | [20] -0.038

DDT (UniProt P30046)
inactive: [1] 0.007 | [2] 0.094 | [3] 0.155 | [4] -0.069 | [5] 0.046 | [6] 0.018 | [7] 0.019 | [8] -0.059 | [9] -0.004 | [10] 0.036 | [11] 0 | [12] -0.04 | [13] 0.01 | [14] 0.01 | [15] 0.089 | [16] -0.013 | [17] 0.135 | [18] 0.086 | [19] -0.103 | [20] 0.039

DGAT1 (UniProt O75907)
inactive: [1] -0.035 | [2] 0.033 | [3] -0.038 | [4] -0.073 | [5] -0.007 | [6] 0.015 | [7] 0.08 | [8] -0.043 | [9] 0.006 | [10] 0.046 | [11] -0.004 | [12] -0.004 | [13] -0.038 | [14] 0.041 | [15] -0.042 | [16] -0.066 | [17] 0.051 | [18] -0.065 | [19] 0 | [20] 0.003

Additional entries follow.

DNAJA2 (UniProt O60884)
inactive: [1] -0.005 | [2] 0.01 | [3] 0.036 | [4] -0.051 | [5] 0.024 | [6] -0.034 | [7] 0.021 | [8] -0.018 | [9] -0.017 | [10] 0.034 | [11] -0.061 | [12] 0.024 | [13] -0.084 | [14] -0.045 | [15] -0.053 | [16] -0.008 | [17] 0.02 | [18] 0.06 | [19] 0.061 | [20] 0.03

DDX17 (UniProt Q92841)
inactive: [1] 0.035 | [2] -0.065 | [3] 0.056 | [4] 0.046 | [5] 0.013 | [6] 0.005 | [7] -0.034 | [8] 0.1 | [9] -0.037 | [10] 0.001 | [11] 0.11 | [12] 0.034 | [13] 0.067 | [14] 0.01 | [15] -0.057 | [16] -0.002 | [17] 0.001 | [18] -0.002 | [19] -0.04 | [20] 0.171

DHRS11 (UniProt Q6UWP2)
inactive: [1] 0.01 | [2] -0.112 | [3] 0.073 | [4] -0.079 | [5] 0.046 | [6] -0.066 | [7] -0.015 | [8] -0.014 | [9] 0.021 | [10] -0.025 | [11] -0.026 | [12] -0.005 | [13] 0.006 | [14] -0.024 | [15] -0.102 | [16] -0.012 | [17] 0.106 | [18] 0.012 | [19] -0.073 | [20] -0.047

DDI2 isoform 3 (UniProt Q5TDH0)
inactive: [1] 0.039 | [2] -0.006 | [3] -0.004 | [4] -0.047 | [5] -0.016 | [6] -0.037 | [7] 0.059 | [8] -0.005 | [9] -0.002 | [10] 0.028 | [11] -0.038 | [12] 0.079 | [13] 0.019 | [14] 0.017 | [15] -0.012 | [16] -0.029 | [17] 0.047 | [18] 0.008 | [19] -0.016 | [20] 0.029

DCXR (UniProt Q7Z4W1)
inactive: [1] 0.016 | [2] 0.073 | [3] 0.033 | [4] -0.041 | [5] 0.05 | [6] -0.044 | [7] -0.002 | [8] -0.036 | [9] -0.017 | [10] 0.02 | [11] -0.026 | [12] -0.01 | [13] -0.031 | [14] 0.024 | [15] 0.032 | [16] -0.025 | [17] 0.011 | [18] 0.019 | [19] -0.007 | [20] 0.026

DHX15 (UniProt O43143)
inactive: [1] 0.014 | [2] 0.024 | [3] -0.004 | [4] -0.072 | [5] 0.019 | [6] 0.001 | [7] -0.027 | [8] -0.037 | [9] -0.001 | [10] 0.034 | [11] -0.026 | [12] 0.009 | [13] -0.036 | [14] 0.011 | [15] 0.013 | [16] 0.01 | [17] 0.021 | [18] 0.006 | [19] -0.001 | [20] 0.008

DHRS4L1 (UniProt P0CG22)
inactive: [1] 0.046 | [2] 0.146 | [3] 0.093 | [4] -0.008 | [5] 0.068 | [6] -0.034 | [7] -0.003 | [8] -0.02 | [9] -0.043 | [10] 0.007 | [11] -0.081 | [12] -0.034 | [13] -0.051 | [14] 0.061 | [15] 0.009 | [16] -0.015 | [17] 0.056 | [18] 0.032 | [19] 0.004 | [20] -0.034

DMTN (UniProt Q08495)
inactive: [1] 0.017 | [2] -0.015 | [3] 0.044 | [4] -0.042 | [5] 0.052 | [6] 0.037 | [7] -0.038 | [8] -0.057 | [9] 0.002 | [10] 0.006 | [11] -0.074 | [12] 0.012 | [13] -0.004 | [14] -0.055 | [15] 0.004 | [16] -0.041 | [17] 0.022 | [18] -0.051 | [19] -0.014 | [20] 0.013

DDX24 (UniProt Q9GZR7)
inactive: [1] 0.014 | [2] 0.024 | [3] -0.278 | [4] 0.398 | [5] -0.083 | [6] 0.174 | [7] 0.094 | [8] -0.021 | [9] 0.135 | [10] 0.013 | [12] 0.081 | [15] 0.236 | [17] -0.265 | [18] -0.12 | [19] 0.017 | [20] 0.072

DHRS2 (UniProt Q13268)
inactive: [1] 0.068 | [2] 0.038 | [3] 0.037 | [4] 0.006 | [5] 0.047 | [6] -0.059 | [7] -0.016 | [8] 0.03 | [9] 0.029 | [10] 0.101 | [11] -0.138 | [12] 0.004 | [13] -0.03 | [14] 0 | [15] -0.069 | [16] -0.057 | [17] 0.002 | [18] -0.007 | [19] -0.001 | [20] -0.052

DDX19B (UniProt Q9UMR2)
inactive: [1] -0.025 | [2] -0.031 | [3] -0.008 | [4] -0.032 | [5] 0.021 | [6] -0.069 | [7] 0.001 | [8] 0.021 | [9] -0.007 | [10] -0.023 | [11] -0.052 | [12] 0.028 | [13] -0.055 | [14] -0.067 | [15] -0.124 | [16] 0.025 | [17] 0.055 | [18] 0.004 | [19] -0.077 | [20] -0.131
